No constants are given. Whether binding was seen depends on the method and setting. Binding seen in cells or lysates may run through a third protein. Here binding means that the protein was enriched with, or labelled near, the bait; the list need not be complete. Sequences can lack the tags named with a protein.
Legend:
[1] = target: T1, Klp10A (Drosophila melanogaster (endogenous in testes)) (UniProt Q960Z0); assay: affinity purification with mass spectrometry; guinea-pig anti-Klp10A on Protein A-Dynabeads; 250 pairs of nos-gal4>UAS-upd testes; 10 mM Tris-HCl pH 7.5, 150 mM NaCl, 0.5 mM EDTA, 0.1% NP40; control pre-immune IgG; two experiments; LC/MS/MS
T1 sequence: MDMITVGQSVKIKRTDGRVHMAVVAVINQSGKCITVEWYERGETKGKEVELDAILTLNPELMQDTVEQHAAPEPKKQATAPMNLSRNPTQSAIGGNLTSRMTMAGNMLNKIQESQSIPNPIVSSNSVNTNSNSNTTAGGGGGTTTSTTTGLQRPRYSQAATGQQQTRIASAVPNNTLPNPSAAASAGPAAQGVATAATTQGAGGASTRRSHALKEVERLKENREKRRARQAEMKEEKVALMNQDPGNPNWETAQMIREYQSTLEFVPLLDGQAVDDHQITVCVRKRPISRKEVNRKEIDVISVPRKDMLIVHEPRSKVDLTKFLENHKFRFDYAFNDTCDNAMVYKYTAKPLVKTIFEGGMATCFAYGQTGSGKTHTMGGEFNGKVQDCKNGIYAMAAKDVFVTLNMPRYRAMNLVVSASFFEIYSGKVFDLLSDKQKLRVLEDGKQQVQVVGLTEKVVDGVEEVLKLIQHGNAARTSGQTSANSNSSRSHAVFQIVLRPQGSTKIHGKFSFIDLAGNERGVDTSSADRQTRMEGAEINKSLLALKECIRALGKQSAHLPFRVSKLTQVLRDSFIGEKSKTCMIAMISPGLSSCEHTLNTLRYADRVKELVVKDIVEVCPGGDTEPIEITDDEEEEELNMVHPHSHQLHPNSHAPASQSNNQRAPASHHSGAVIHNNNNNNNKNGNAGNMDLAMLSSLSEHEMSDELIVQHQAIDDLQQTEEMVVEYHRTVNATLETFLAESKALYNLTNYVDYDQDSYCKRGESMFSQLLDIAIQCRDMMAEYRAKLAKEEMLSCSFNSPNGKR

[2] = target: T1, Klp10A (Drosophila melanogaster (endogenous in testes)); assay: affinity purification with mass spectrometry; anti-Klp10A pull down from Dpp testis (nos>dpp, SG tumor); two experiments; LC/MS/MS
[3] = target: T2, GFP-Klp10A (Drosophila melanogaster) (UniProt Q960Z0); assay: affinity purification with mass spectrometry; GFP-Trap agarose beads on GFP-Klp10A; 1500 pairs of nos-gal4>UAS-upd, UAS-gfp-klp10A testes; 10 mM Tris-HCl pH 7.5, 150 mM NaCl, 0.5 mM EDTA, 0.1% NP40; control GFP from Upd testis; LC-MS/MS
T2 sequence: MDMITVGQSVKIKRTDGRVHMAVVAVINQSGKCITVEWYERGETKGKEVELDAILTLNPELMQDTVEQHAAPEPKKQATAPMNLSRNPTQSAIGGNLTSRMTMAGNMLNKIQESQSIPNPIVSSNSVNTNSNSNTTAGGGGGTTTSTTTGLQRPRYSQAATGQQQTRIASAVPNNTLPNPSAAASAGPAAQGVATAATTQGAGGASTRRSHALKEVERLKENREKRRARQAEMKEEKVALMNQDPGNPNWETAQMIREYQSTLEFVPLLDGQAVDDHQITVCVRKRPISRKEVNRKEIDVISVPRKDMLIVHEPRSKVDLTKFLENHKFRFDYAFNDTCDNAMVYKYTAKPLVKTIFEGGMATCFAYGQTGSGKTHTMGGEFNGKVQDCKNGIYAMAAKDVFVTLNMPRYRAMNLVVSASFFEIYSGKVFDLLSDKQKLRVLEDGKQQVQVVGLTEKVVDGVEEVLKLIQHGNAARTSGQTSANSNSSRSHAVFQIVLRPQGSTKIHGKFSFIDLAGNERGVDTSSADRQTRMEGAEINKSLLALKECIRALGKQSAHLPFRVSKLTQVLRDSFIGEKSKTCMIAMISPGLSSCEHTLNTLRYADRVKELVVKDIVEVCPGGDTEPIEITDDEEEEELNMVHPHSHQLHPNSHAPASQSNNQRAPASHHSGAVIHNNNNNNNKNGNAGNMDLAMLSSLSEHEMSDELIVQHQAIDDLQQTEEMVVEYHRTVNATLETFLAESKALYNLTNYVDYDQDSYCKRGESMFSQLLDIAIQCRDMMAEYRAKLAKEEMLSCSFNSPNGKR

Measured: binding

B1: Spindle-E (protein, UniProt Q9VF26 1-1434)
chain: MDQEVMDFFDFSKELKRVAAAPQGYISSDPRLMATKFKSSEVPNRELIGTDYVSKIVAKEKCLLNGTLLNEQPQGKRIRTLDDLDTDDEGEETEIRRDDEYYKKFRFNLNRDKNLSIYAKREEILAAINAHPVVIIKGETGCGKTTQVPQYILDEAYKSGKYCNIVVTQPRRIAAISIANRVCQEREWQQNTVCSFQVGLHRPNSLEDTRLLYCTTGVLLNNLINNKTLTHYTHIVLDEVHERDQNMDFLLIVVRRLLATNSRHVKIILMSATIDAKELSDYFTTTNSIPPVITTNHRRKHSIEKFYRDQLGSIIWNEEDVGHQQVPEINKHGYRAAVKIIVIIDNMERKAAIQSRQSYDEALRYGAVLIFLPGIYEIDTMAENLTCMLENDPNIKVSIVRCFSLMTPENQRDVFNPPPPGFRKIILTTNIAESSITVPDVSYVIDFCLAKVKVTDTASSFSSLRLTWASKANCRQRAGRVGRLRSGRVYRMVNKHFYQREMPEFGIPEMLRLPLQNSVLKAKVLNMGSPVEILALALSPPNLSDIHNTILLLKEVGALYLTVDGIYDPLDGDLTYWGTIMSRLPLDTRQSRLIILGYIFNMLEEAIIIAAGLSTPGLFAHEGGRSQLGDSFWMHYIFSDGSGSDLVAIWRVYLTYLNIVENGHDQESAIRWAKRFHVSLRSLKEIHLLVQELRVRCTHLGLIPFPVNPNQMMDDREKAIMLKVIIAGAFYPNYFTRSKESCADTDRNIYQTISGHDPCRTVYFTNFKPAYMGELYTRRIKELFQEVRIPPENMDVTFQEGSQKVFVTFKQDDWIEGSSKYVPVSGRVQSEVYKAVMMRQNRVERPIHIMNPSAFMSYVQQRGIGDVIEGRWIPPTKPLNVELLALPSVFDKTISGSITCIVNCGKFFFQPQSFEECIRNMSEIFNAPQQLRNYVTNASAIAKGMMVLAKRDSYFQRATVIRPENQSNRQPMFYVRFIDYGNCTLLPMQLMRLMPRELTEQYGDLPPRVFECRLAMVQPSSVVSGNNRWSTAANDMLKTVAQCGLIDIEVYSLFNNVAAVLIHMRDGIINDKLVELMLCRRSDEDYMSRKDHDFRLRRQESARNLSTAQRQQINEEYLRSCQLPQDHDLPPPPLEKCKTVVMLKGPNSPLECTMRSITRVGLSKRVNIDHLSVNALLLDADPQDHHDHLIVAHEIAESRNGQTLTARGTTLMPNVQGFGALMVMLFSPTMQLKCNKEGTSYVSVLGGLGCDPDTNEPYFAEHDVLINLDVNILEDDVILINQIRYYIDSVFFNFKEENNPAVSVNERVSIYTQLRSLINRLLCKDRRYIERNMSNADFEWETNPELPLPNEPFGKRAIFPMHSLTELQEEDTGRLVQLRENCSMLHKWRNFEGTLPHMTCKLCNQLLESVPQLRLHLLTILHRDREKQIDYCNQ
binds: [1] | [2] | [3]

B2: Armitage (protein, UniProt Q6J5K9 1-1188)
chain: MFTYVSKFFTNPDRNREDILESLDRENSFLDQKLMEEKMDQQLKANPNEINGVLSNKIAELTHGLSEMDVSKESSCTARKGVITSLDGDRGVIDKDVLFETKVAEDIILDLHVGCVVEYLTFTTGEAMRVVKVKSILEHSWEDTSQKEIEKAVDNLKNEKPTFFNTETRSVLGLISQRLASSIDVETEYGQLTVELDNIEMNFIPTNGDRVRLECNIQLDDGFVDKQGEILEVTKLFPTRIQEGEKCIVERVYVHMVVLGPETYILKTDLPTGTDLHLGDIVLADLIECQYSKFTRRAIKITPLEKNFGATKLTQQSSMGSSGSGKAVTVTGVNRFITAELWQKESVSLKLTNNLNRTLRLESITVCNDSESQLSVVSPLESKEISSGSEITVTFEIHTQFLGEAIEKYVLNFDLLKVRRVFTVIVCKTKEEVAEAEKRMIAAEALMAPGRNSQERSRFYANQVWCNKVDVIPGQQIVTKRRFVALRLGCFEVPKELRQICLTSERRQEMIKAIEQHYSFLTEPLSIKTYMHRFRLLLHLEEIECFVNFRNYDRDRAHFLRDGEFLTLQIENLAERRPSLVIGDTLRVINPWSDPDSQTTKSYEGIIHKVLFDRILLKFHSSFQEKYNGEDYRLEFYFSRYSFRKQHHAISKIVGVMGEDFLFPSKVTKRENPQLDVYMKDDDMYLYDSKLEWYNQSLNSIQKRAVFNILRGEAENIPYVLFGPPGSGKTMTLIETLLQLVRNLPGARILVGTPSNSSADLVTKRLIDSKALLQGDFIRLVSYNQVEKDLIPPEIMSYCATSDVGAVGSCEDKMMVTESGLKLRCQAKFIGTHRITISTCTTLGNFLQLGFPAGHFTHVLFDEAGQCTEPETMVPIVMLTKKRSQVVLSGDPRQLQSIVTSRIASKMGFSISFLERLLERSPYRKDLQRFPESSGYNPLVLTKLLYNYRALPSIMSIYSRLFYDDELIPVLSEKDSRESRLLSKLRCVFESEKDIPQAHGTFFYGIIGENRQNNDSPSWFNPQEVREVFLMTIALYRANVTADQIGIITPYQKQVKMLRSMFIGTDVVMPKIGSVEEFQGQERDIILISTVRSSEEILRMDARFSLGFVRCSKRLNVAVSRARAMMIIFGNPHLLAVDECWRQLILFCVKNNAYFGCDLPQMVINQKDEVPVCLETFVPSLNTTDDLN
binds: [1] | [2] | [3]

From publication PMC7094869
